Further values from the same series stand in other lists.
Key:
Assay type in all cases: cell-based
Conditions in all cases: U-87MG ATCC
[1] = Inhibition of RTK/PI3K/AKT/mTOR signaling in human U87 cells assessed as down regulation of ZNF273 gene expression at cytotoxic IC50 measured after 48 hrs relative to control
[2] = Inhibition of RTK/PI3K/AKT/mTOR signaling in human U87 cells assessed as down regulation of OSTF1 gene expression at cytotoxic IC50 measured after 48 hrs relative to control
[3] = Inhibition of RTK/PI3K/AKT/mTOR signaling in human U87 cells assessed as down regulation of FBXO6 gene expression at cytotoxic IC50 measured after 48 hrs relative to control
[4] = Inhibition of RTK/PI3K/AKT/mTOR signaling in human U87 cells assessed as down regulation of MAN2B2 gene expression at cytotoxic IC50 measured after 48 hrs relative to control
[5] = Inhibition of RTK/PI3K/AKT/mTOR signaling in human U87 cells assessed as down regulation of CPEB4 gene expression at cytotoxic IC50 measured after 48 hrs relative to control
[6] = Inhibition of RTK/PI3K/AKT/mTOR signaling in human U87 cells assessed as down regulation of TTC7A gene expression at cytotoxic IC50 measured after 48 hrs relative to control
[7] = Inhibition of RTK/PI3K/AKT/mTOR signaling in human U87 cells assessed as down regulation of NCOA1 gene expression at cytotoxic IC50 measured after 48 hrs relative to control
[8] = Inhibition of RTK/PI3K/AKT/mTOR signaling in human U87 cells assessed as down regulation of MFAP1 gene expression at cytotoxic IC50 measured after 48 hrs relative to control
[9] = Inhibition of RTK/PI3K/AKT/mTOR signaling in human U87 cells assessed as down regulation of CBLL1 gene expression at cytotoxic IC50 measured after 48 hrs relative to control
[10] = Inhibition of RTK/PI3K/AKT/mTOR signaling in human U87 cells assessed as down regulation of MCPH1 gene expression at cytotoxic IC50 measured after 48 hrs relative to control
[11] = Inhibition of RTK/PI3K/AKT/mTOR signaling in human U87 cells assessed as down regulation of UBR3 gene expression at cytotoxic IC50 measured after 48 hrs relative to control
[12] = Inhibition of RTK/PI3K/AKT/mTOR signaling in human U87 cells assessed as down regulation of SDE2 gene expression at cytotoxic IC50 measured after 48 hrs relative to control
[13] = Inhibition of RTK/PI3K/AKT/mTOR signaling in human U87 cells assessed as down regulation of TACC2 gene expression at cytotoxic IC50 measured after 48 hrs relative to control
[14] = Inhibition of RTK/PI3K/AKT/mTOR signaling in human U87 cells assessed as down regulation of MEAF6 gene expression at cytotoxic IC50 measured after 48 hrs relative to control
[15] = Inhibition of RTK/PI3K/AKT/mTOR signaling in human U87 cells assessed as down regulation of HMGB3 gene expression at cytotoxic IC50 measured after 48 hrs relative to control
[16] = Inhibition of RTK/PI3K/AKT/mTOR signaling in human U87 cells assessed as up regulation of SLC2A1 gene expression at cytotoxic IC50 measured after 48 hrs relative to control
[17] = Inhibition of RTK/PI3K/AKT/mTOR signaling in human U87 cells assessed as up regulation of PIP5KL1 gene expression at cytotoxic IC50 measured after 48 hrs relative to control
[18] = Inhibition of RTK/PI3K/AKT/mTOR signaling in human U87 cells assessed as up regulation of WNT6 gene expression at cytotoxic IC50 measured after 48 hrs relative to control
[19] = Inhibition of RTK/PI3K/AKT/mTOR signaling in human U87 cells assessed as up regulation of FK506 binding protein like gene expression at cytotoxic IC50 measured after 48 hrs relative to control
[20] = Inhibition of RTK/PI3K/AKT/mTOR signaling in human U87 cells assessed as up regulation of copine 7 gene expression at cytotoxic IC50 measured after 48 hrs relative to control
[21] = Inhibition of RTK/PI3K/AKT/mTOR signaling in human U87 cells assessed as up regulation of protease, serine 16 gene expression at cytotoxic IC50 measured after 48 hrs relative to control
[22] = Inhibition of RTK/PI3K/AKT/mTOR signaling in human U87 cells assessed as up regulation of lysosomal associated membrane protein 3 gene expression at cytotoxic IC50 measured after 48 hrs relative to control
[23] = Inhibition of RTK/PI3K/AKT/mTOR signaling in human U87 cells assessed as up regulation of eukaryotic translation initiation factor 4 gamma 3 gene expression at cytotoxic IC50 measured after 48 hrs relative to control
[24] = Inhibition of RTK/PI3K/AKT/mTOR signaling in human U87 cells assessed as up regulation of calnexin gene expression at cytotoxic IC50 measured after 48 hrs relative to control
[25] = Inhibition of RTK/PI3K/AKT/mTOR signaling in human U87 cells assessed as up regulation of family with sequence similarity 136 member A gene expression at cytotoxic IC50 measured after 48 hrs relative to control
[26] = Inhibition of RTK/PI3K/AKT/mTOR signaling in human U87 cells assessed as up regulation of spire type actin nucleation factor 2 gene expression at cytotoxic IC50 measured after 48 hrs relative to control
[27] = Inhibition of RTK/PI3K/AKT/mTOR signaling in human U87 cells assessed as up regulation of ring finger protein 187 gene expression at cytotoxic IC50 measured after 48 hrs relative to control
[28] = Inhibition of RTK/PI3K/AKT/mTOR signaling in human U87 cells assessed as up regulation of protein phosphatase 3 catalytic subunit alpha gene expression at cytotoxic IC50 measured after 48 hrs relative to control
[29] = Inhibition of RTK/PI3K/AKT/mTOR signaling in human U87 cells assessed as up regulation of ZFP36 ring finger protein like 2 gene expression at cytotoxic IC50 measured after 48 hrs relative to control
[30] = Inhibition of RTK/PI3K/AKT/mTOR signaling in human U87 cells assessed as up regulation of C6orf48 gene expression at cytotoxic IC50 measured after 48 hrs relative to control
[31] = Inhibition of RTK/PI3K/AKT/mTOR signaling in human U87 cells assessed as up regulation of RPL15 gene expression at cytotoxic IC50 measured after 48 hrs relative to control
[32] = Inhibition of RTK/PI3K/AKT/mTOR signaling in human U87 cells assessed as up regulation of ATL3 gene expression at cytotoxic IC50 measured after 48 hrs relative to control

For `CC(=O)C(=NNc1ccccc1C#N)C(C)=O`, the log2FC [1] was -1.99, the log2FC [2] was -1.48 and the log2FC [3] was -1.16. For the same compound, the log2FC [4] was -1.11, the log2FC [5] was -1.1 and the log2FC [6] was -1.07. For the same compound, the log2FC [7] was -0.896, the log2FC [8] was -0.824 and the log2FC [9] was -0.819. For the same compound, the log2FC [10] was -0.783, the log2FC [11] was -0.778 and the log2FC [12] was -0.773. The log2FC [13] was -0.748, the log2FC [14] was -0.642 and the log2FC [15] was -0.637. The log2FC [16] was 2.84, the log2FC [17] was 2.48 and the log2FC [18] was 2.19. The log2FC [19] was 1.47, the log2FC [20] was 1.38 and the log2FC [21] was 1.26. For the same compound, the log2FC [22] was 1.25, the log2FC [23] was 0.853 and the log2FC [24] was 0.838. The log2FC [25] was 0.792, the log2FC [26] was 0.784 and the log2FC [27] was 0.773. The log2FC [28] was 0.721, the log2FC [29] was 0.647 and the log2FC [30] was 0.605. The log2FC [31] was 0.574 and the log2FC [32] was 0.532.

Source: ChEMBL document CHEMBL4316593 (Eur J Med Chem, 2019)
